Measurements reported in PubChem BioAssay AID1508597 (Cure First, 2020).

- Screen: 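Survival screen with siRNA in ovarian cancer cells derived from patients, with or without rucaparib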 (primary screen)
- Cells: human ovarian carcinoma lines grown from tumours: OCI-P5x (papillary serous) and OCI-C5x (clear cell)
- Reagent: siRNA pool against human genes, 1.25 pmol siRNA per well
- Duration: 72 h or 96 h, depending on the cell culture
- Treatment: rucaparib 20 µM (about IC30) or vehicle, present until read-out
- Rucaparib or vehicle: Rucaparib
- Cell line: OCI-P5x (serous)
- Measured: 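Luminescent ATP-based viability assay read 72 or 96 h after transfection, depending on culture, given as normalised percent viability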
- Direction: viability, normalised: higher = more viable cells remaining
- Hit rule: 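a well counts as a hit if its normalised viability is under 80 percent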
- Meaning of the calls: active = viability under 80%; inactive = viability 80% or more
This is a random part of the about 2,100 reagents, under one of the conditions tested. 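Calls flag viability under 80% in either arm, not effects specific to rucaparib; the reference for percent is not stated.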 Entries without a mark were called inactive. Some reagents were tested in more than one well and are listed for each. Not stated in the record: the 100% reference.

| gene | PubChem SID | technical replicate | viability, normalised (%) |
| --- | --- | --- | --- |
| CSNK1E | SID405526352 | 1 | 83.4 |
| CSNK1E | SID405526352 | 1 | 101 |
| CSNK1E | SID405526352 | 1 | 85.3 |
| CSNK1E | SID405526352 | 2 | 96 |
| CSNK1E | SID405526352 | 2 | 88 |
| CSNK1E | SID405526352 | 2 | 96.4 |
| CSNK1E | SID405526352 | 3 | 88.5 |
| CSNK1E | SID405526352 | 3 | 93.5 |
| CSNK1E | SID405526352 | 3 | 95.1 |
| NEK2 | SID405526365 | 1 | 109 |
| NEK2 | SID405526365 | 1 | 84 |
| NEK2 | SID405526365 | 2 | 59.7 (active) |
| NEK2 | SID405526365 | 2 | 101 |
| NEK2 | SID405526365 | 3 | 79.7 (active) |
| NEK2 | SID405526365 | 3 | 97.3 |
| SCMH1 | SID405527276 | 1 | 40.7 (active) |
| SCMH1 | SID405527276 | 2 | 44.7 (active) |
| SCMH1 | SID405527276 | 3 | 47.8 (active) |

The list goes on, starting with the last 3 of the part before.
| gene | PubChem SID | technical replicate | viability, normalised (%) |
| --- | --- | --- | --- |
| SCMH1 | SID405527276 | 1 | 40.7 (active) |
| SCMH1 | SID405527276 | 2 | 44.7 (active) |
| SCMH1 | SID405527276 | 3 | 47.8 (active) |
| JAK3 | SID405527431 | 1 | 130 |
| JAK3 | SID405527431 | 2 | 142 |
| JAK3 | SID405527431 | 3 | 106 |
| GTF2H3 | SID405528283 | 1 | 71.5 (active) |
| GTF2H3 | SID405528283 | 2 | 77 (active) |
| GTF2H3 | SID405528283 | 3 | 63.7 (active) |
| PYGO1 | SID405527218 | 1 | 27.7 (active) |
| PYGO1 | SID405527218 | 2 | 31.4 (active) |
| PYGO1 | SID405527218 | 3 | 39.3 (active) |
| SBNO1 | SID405527275 | 1 | 39.9 (active) |
| SBNO1 | SID405527275 | 2 | 49.7 (active) |
| SBNO1 | SID405527275 | 3 | 49.8 (active) |
| FRK | SID405527613 | 1 | 83 |
| FRK | SID405527613 | 2 | 82.8 |
| FRK | SID405527613 | 3 | 71.3 (active) |
| CDC5L | SID405528082 | 1 | 87.5 |
| CDC5L | SID405528082 | 2 | 91.7 |
| CDC5L | SID405528082 | 3 | 66.2 (active) |
| PELO | SID405527134 | 1 | 26.3 (active) |
| PELO | SID405527134 | 2 | 38.7 (active) |
| PELO | SID405527134 | 3 | 46 (active) |
